This test addresses β-tubulin (Drosophila). The test is described as follows: co-IP; co-immunoprecipitation assays of Fig. S10; source of proteins and antibodies not told in the text shown.

Results are given in words; binding and its absence hold for the method and conditions named. Binding seen in cells or lysates may run through a third protein.

B1: Partner of Inscuteable (Pins) (protein, UniProt Q9VB22 1-658)
chain: MSSLSASAENVSSLGLGSGGGGTTSHDGNSQQGSGSDGGSSMCLELALEGERLCKAGDCRAGVAFFQAAIQAGTEDLRTLSAIYSQLGNAYFYLGDYNKAMQYHKHDLTLAKSMNDRLGEAKSSGNLGNTLKVMGRFDEAAICCERHLTLARQLGDRLSEGRALYNLGNVYHAKGKHLGQRNPGKFGDDVKEALTRAVEFYQENLKLMRDLGDRGAQGRACGNLGNTYYLLGDFQAAIEHHQERLRIAREFGDRAAERRANSNLGNSHIFLGQFEDAAEHYKRTLALAVELGEREVEAQSCYSLGNTYTLLHEFNTAIEYHNRHLAIAQELGDRIGEARACWSLGNAHSAIGGHERALKYAEQHLQLAKELHDPVGESTARVNISDLRKLLGMPDSEPSPTEEEARSTASDHSASGNQSDGSENSQGRMVRVRRQSMEQLDLIKITPDGKRMQEEKLRAQATRKAKDDDFFEMLSRSQSKRMDDQRCSIKVNPAGAPAVATGATRKPLVQQNSLFVDPTNLPGLKSPSSANPSAIGHGPLARSATTTQQPDDDFLDMLMRCQGSRLEEQRSELPRPNVTMDAEAEAPPRSVPEAAVPGAPRGQTGRGATVPDEDFFSLIMKVQSGRMEDQRASIPFRNANNNNNSRSNNNGSAGGAGK
On to B1, for which the binding result is on record as “no binding”.

The values above are taken from PMC4812327.
